PubChem BioAssay AID504467 (National Center for Advancing Translational Sciences (NCATS), 2011)
Hit rate of the full screen: of about 330,000 compounds, about 7,700 (2.3%) were called active. Inconclusive results, whose numbers are uncertain, are shown with a selection of clear calls. The call rests on the fitted dose curve; in most records, active means well fitted inhibition curve with a large enough effect; inconclusive means small, poorly fitted or top-dose-only effect, or effect the other way; inactive means flat fitted curve, though single readings scatter. A potency beside an inconclusive call is a rough fit, not a confirmed value.

Assay: qHTS screen for small molecules that inhibit ELG1-dependent DNA repair in human embryonic kidney (HEK293T) cells expressing luciferase-tagged ELG1; further: nearly all actives have a fitted effect of over 55% in size
Conditions: HEK293T ELG1-luciferase reporter, luminescence, 16 h, DNA damage induced by 5-fluorouridine; series mostly up to 46.1 µM
In short: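 Step one: seed 2,000 cells per well. Step two: pin-transfer compound or DMSO alongside 5-fluorouridine. Step three: incubate 16 hr, 37 °C, 5% CO2. Step four: add ONE-Glo, wait 30 min, read luminescence.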
Potency means the concentration at half of the fitted maximal effect.

| Structure (SMILES) | Potency |
| --- | --- |
| Cc1cccc(Nc2nc(N)nc(CSc3nccc(C)n3)n2)c1 | inactive |
| Brc1ccc(CSc2nnc(-c3ccco3)o2)cc1 | inconclusive: 25.9 µM [activator, single point] |
| COCc1ccc(C(=O)N(C)CC2CCCN(CCc3ccc(OC)cc3)C2)o1 (stereo not drawn) | inconclusive: 16.4 µM [activator, partial curve] |
| CCCn1nnnc1NC(=O)c1cccs1 | inactive |
| Cc1ccc(C)c(OC(=O)c2cccnc2Cl)c1C | inconclusive: 11.6 µM [activator, partial curve] |
| COc1ccc(NC(=O)CNC(=O)c2nn(-c3ccc(OC)c(OC)c3)c(=O)c3ccccc23)c(OC)c1 | inconclusive: 6.51 µM [inhibitor, single point] |
| CN(CC(=O)N1CCCCC1)S(=O)(=O)c1cccc2nsnc12 | inconclusive: 6.51 µM [activator, partial curve, poor fit] |
| CCN1C(=O)/C(=C2\SC(N3CCCCC3)=NC2=O)c2ccccc21 | inconclusive: 6.51 µM [activator, single point] |
| c1coc(CNc2nc(-c3ccncc3)cs2)c1 | inconclusive: 8.2 µM [activator, partial curve, poor fit] |
| CCN(CC)CCOC(=O)/C=C/c1ccccc1OC | inactive |
| O=C(Nc1nc2n(n1)C(c1ccccc1)CC(c1ccc(Cl)cc1)N2)c1ccco1 (stereo not drawn) | inconclusive: 13 µM [inhibitor, partial curve, poor fit] |
| CCOC(=O)CCNC(=O)Nc1ccc2nc(C)n(Cc3ccc(Cl)cc3)c(=O)c2c1 | active: 14.6 µM |
| O=C(CCS(=O)(=O)c1ccccc1)NNC(=O)COc1ccc(F)cc1 | inactive |
| COc1ccc(-c2cc(C(=O)NNC(=S)NC(=O)c3c(-c4ccccc4)noc3C)[nH]n2)cc1 | inconclusive: 23.1 µM [inhibitor, single point] |
| CC12CC3CC(C)(C1)CC(C(=O)N1CCN(C(=O)C4CCCO4)CC1)(C3)C2 (stereo not drawn) | inactive |
| O=C(c1ccc(Cl)c(S(=O)(=O)N2CCc3ccccc3C2)c1)N1CCN(c2ccccc2)CC1 | inconclusive: 25.9 µM [inhibitor, single point] |
| COc1ccc(-c2cc(CC3(C(=O)O)CCN(C(=O)OC(C)(C)C)CC3)on2)c(OC)c1 | inactive |
| O=C(Cn1c(=S)[nH]c2ccccc21)c1ccccc1 | inactive |
| CC1CN(C(=O)COc2ccc3c(-c4ccccc4)cc(=O)oc3c2)CC(C)O1 (stereo not drawn) | inactive |
| O=C(NNC(=O)c1cc(-c2ccc(Cl)cc2Cl)nc2ccccc12)Nc1ccccc1 | inconclusive: 29.1 µM [inhibitor, single point] |
| OC(CN1C2=NCCCN2c2ccccc21)c1ccc(Cl)cc1 (stereo not drawn) | inactive |
| Cc1ccc(CN2C(=O)N/C(=C\c3cccn3-c3cccc(C(=O)O)c3)C2=O)cc1 | inactive |
| CC1=NN(Cc2c(C)nn(Cc3ccccc3)c2C)C(C)(C)C1 | inconclusive: 32.6 µM [inhibitor, single point] |
| COc1ccc(Cl)cc1C1=CC(=O)C[C@H](c2ccc(F)cc2)C1 | inconclusive: 18.3 µM [inhibitor, single point] |
| CCOc1ccc(OCCN2C(=O)c3ccccc3C2=O)cc1 | active: 8.2 µM |

Entries shown so far with a COOH group:

| Structure (SMILES) | Potency |
| --- | --- |
| COc1ccc(-c2cc(CC3(C(=O)O)CCN(C(=O)OC(C)(C)C)CC3)on2)c(OC)c1 | inactive |
| Cc1ccc(CN2C(=O)N/C(=C\c3cccn3-c3cccc(C(=O)O)c3)C2=O)cc1 | inactive |

(cont.)

| Structure (SMILES) | Potency |
| --- | --- |
| Cc1cc(/C=C2/NC(=O)NC2=O)c(C)n1C | inactive |
| O=C(Nc1ccc(N2CCN(C(=O)c3ccccc3)CC2)cc1)c1ccc([N+](=O)[O-])o1 | inconclusive: 20.6 µM [inhibitor, single point] |
| O=C(CCc1nc2sc3c(c2c(=O)[nH]1)CCCC3)Nc1ccccc1Cl | inactive |
| COc1cc(/C=N/Nc2cccc(C)c2)ccc1OC(=O)c1ccco1 | inconclusive: 18.4 µM [activator, single point] |
| Cc1ccc(C(=O)NCCCc2ccccc2)c(Cl)c1 | inconclusive: 11.2 µM [activator, partial curve] |
| COc1ccc(CN2CCCN(S(=O)(=O)c3ccc(Br)cc3)CC2)cc1 | inconclusive: 16.4 µM [inhibitor, single point] |
| COc1ccc(-c2cn3c(C)c(C(=O)Nc4cccc(C)n4)sc3n2)cc1 | inconclusive: 29.1 µM [inhibitor, single point] |
| O=C(Nc1ccc(Cl)cc1)N1CCC(c2nc(-c3ccc(F)cc3)no2)CC1 | inactive |
| Oc1ccccc1N=Cc1sc2ccccc2c1Cl | inactive |
| CCC(CC)c1nnc(NC(=O)c2ccc3c(c2)OCO3)s1 | inconclusive: 10.3 µM [activator, partial curve] |
| COC(=O)c1ccc(C(=O)OC)c(NC(=O)COC(=O)CCOc2ccc(C)cc2)c1 | inactive |
| CC1CN(C(=O)CCS(=O)(=O)c2ccccc2)CC(C)O1 (stereo not drawn) | inconclusive: 20.6 µM [activator, partial curve, poor fit] |
| CCN(CC)S(=O)(=O)c1ccc(NC(=O)c2ccccn2)cc1 | inconclusive: 6.51 µM [activator, partial curve] |
| Cc1ccccc1Cn1nnc(C(=O)Nc2ccc3c(c2)OCCO3)c1N | inconclusive: 11.6 µM [activator, partial curve] |
| Cc1sc2ncn(CC(=O)NCCCN3CC(C)CC(C)C3)c(=O)c2c1S(=O)(=O)N1CC(C)CC(C)C1 (stereo not drawn) | inactive |
| CCOc1ccc(N(C(C)C(=O)N/N=C(\C)c2cccc(NC(=O)c3ccccc3)c2)S(C)(=O)=O)cc1 (stereo not drawn) | inconclusive: 20.6 µM [inhibitor, single point] |
| Cc1cc(C2CCCCC2)n(O)c(=O)c1 | inconclusive: 28.2 µM [inhibitor, single point] |
| CC(Sc1ccc(S(=O)(=O)N2CCOCC2)cn1)C(=O)Nc1ccc(Cl)cc1Cl (stereo not drawn) | inconclusive: 25.9 µM [inhibitor, single point] |
| Cc1ccc(C)c(C(=O)COC(=O)c2n[nH]c3ccccc23)c1 | inconclusive: 4.61 µM [activator, single point] |
| COc1ccc2c(C(=O)CN3CCSCC3)c[nH]c2c1 | inconclusive: 25.9 µM [activator, partial curve] |
| CC(=O)c1cccc(NC(=O)N2CCc3ccccc3C2)c1 | inconclusive: 13 µM [activator, partial curve] |
| CC(C)C(=O)Nc1ccccc1C(=O)OCC(=O)c1ccc2c(c1)OCCO2 | inactive |
| O=C(CCN1C(=O)/C(=C/c2cccs2)SC1=S)Nc1cccc(O)c1 | inconclusive: 18.3 µM [inhibitor, single point] |
| COc1ccc2nc(NC(=O)CCc3cc(OC)c(OC)c(OC)c3)sc2c1 | active: 10.3 µM |
| Cc1ccnc(NC(=O)C2CCN(S(=O)(=O)c3cccc4nsnc34)CC2)c1 | inconclusive: 16.4 µM [inhibitor, single point] |

| Structure (SMILES) | Potency |
| --- | --- |
| CC(OC(=O)c1ccc2c(c1)S(=O)(=O)c1ccccc1C2=O)C(N)=O (stereo not drawn) | inactive |
| CCc1c(C)c2ccc(OCC(=O)N(C)C)c(C)c2oc1=O | inconclusive: 25.9 µM [activator, single point] |
| COc1ccc(CNC(=O)C2=C(C)C(=O)OC23CCC(C)CC3)cc1 (stereo not drawn) | inconclusive: 6.51 µM [inhibitor, partial curve] |
| COc1cc(-c2[nH]ncc2CN2CCCC2c2nonc2C)cc(OC)c1OC (stereo not drawn) | inconclusive: 29.1 µM [activator, single point] |
| Cc1ccc(S(=O)(=O)N2CCN(C(=O)CSC(=S)N3CCCC3)CC2)c(C)c1 | inconclusive: 23.1 µM [inhibitor, partial curve, poor fit] |
| Cc1cc2occ(CC(=O)N(C)CC(=O)Nc3ccccc3Cl)c2cc1C | inactive |
| COc1ccc(CCNC(=O)c2ccc(S(=O)(=O)N3CCCCC3)cc2)cc1 | inconclusive: 0.231 µM [inhibitor, single point] |
| O=c1c2ccccc2ncn1CCCSc1ccc(Cl)cc1 | inactive |
| Cn1c(NCCO)nc2c(c1=O)C1(CCCCC1)Cc1ccccc1-2 | inactive |
| CC(=O)Nc1ccc2c(c1)C(=O)c1ccccc1C2=O | inconclusive: 5.8 µM [activator, partial curve] |
| CCCCCC(=O)Nc1ccc(-c2csc(N)n2)cc1 | inactive |
| CCOC(=O)c1c(NC(=O)C2C3C=CC(CC3)C2C(=O)O)sc(C)c1C (stereo not drawn) | inactive |
| O=C(Nc1ccc(F)cc1F)N1CCCN(CCOc2ccccc2)CC1 | inconclusive: 29.1 µM [inhibitor, single point] |
| O=C(Nc1ccc(Cl)cn1)C1COc2ccccc2O1 (stereo not drawn) | inactive |
| O=C(NCCc1ccc(F)cc1)Nc1ccccc1Cl | inactive |
| CCCCNC(=O)c1nn2c(C(F)(F)F)cc(-c3ccc(OC)cc3)nc2c1Br | inactive |
| CCOc1cc(/C=N/NC(=O)CCc2n[nH]c(=O)[nH]c2=O)ccc1O | inactive |
| Cc1ccc(CN(C)C(=O)COc2ccc(S(=O)(=O)N3CCCC3)cc2[N+](=O)[O-])c(C)c1 | inconclusive: 16.4 µM [inhibitor, partial curve, poor fit] |
| COc1ccc(C(=O)Nc2cc(C)nn2-c2nc3ccccc3[nH]2)c(OC)c1 | active: 23.1 µM |
| COc1ccc(Cc2nn3c(-c4ccccc4Br)nnc3s2)cc1 | inconclusive: 29.1 µM [inhibitor, single point] |
| CCCn1nc(Oc2nc(NCC)nc(NC(C)C)n2)ccc1=O | inconclusive: 12.6 µM [activator, partial curve, poor fit] |
| O=C(NCCC1CCCCN1S(=O)(=O)c1ccccc1)C(=O)NCc1ccncc1 (stereo not drawn) | inactive |
| O=C(O)C1=C[C@H](c2ccc(C(F)(F)F)cc2)C[C@H](OCc2ccc(CO)cc2)O1 | inactive |

Looked up above.
Value of COc1ccc(C(=O)Nc2cc(C)nn2-c2nc3ccccc3[nH]2)c(OC)c1 under Potency: active: 23.1 µM
Value of O=C(NCCc1ccc(F)cc1)Nc1ccccc1Cl under Potency: inactive
